Binding data for 4 molecules are collected here from article PMC4764564.

Chains of the proteins cited; added tags and fusions are not shown.
UniProt Q62696: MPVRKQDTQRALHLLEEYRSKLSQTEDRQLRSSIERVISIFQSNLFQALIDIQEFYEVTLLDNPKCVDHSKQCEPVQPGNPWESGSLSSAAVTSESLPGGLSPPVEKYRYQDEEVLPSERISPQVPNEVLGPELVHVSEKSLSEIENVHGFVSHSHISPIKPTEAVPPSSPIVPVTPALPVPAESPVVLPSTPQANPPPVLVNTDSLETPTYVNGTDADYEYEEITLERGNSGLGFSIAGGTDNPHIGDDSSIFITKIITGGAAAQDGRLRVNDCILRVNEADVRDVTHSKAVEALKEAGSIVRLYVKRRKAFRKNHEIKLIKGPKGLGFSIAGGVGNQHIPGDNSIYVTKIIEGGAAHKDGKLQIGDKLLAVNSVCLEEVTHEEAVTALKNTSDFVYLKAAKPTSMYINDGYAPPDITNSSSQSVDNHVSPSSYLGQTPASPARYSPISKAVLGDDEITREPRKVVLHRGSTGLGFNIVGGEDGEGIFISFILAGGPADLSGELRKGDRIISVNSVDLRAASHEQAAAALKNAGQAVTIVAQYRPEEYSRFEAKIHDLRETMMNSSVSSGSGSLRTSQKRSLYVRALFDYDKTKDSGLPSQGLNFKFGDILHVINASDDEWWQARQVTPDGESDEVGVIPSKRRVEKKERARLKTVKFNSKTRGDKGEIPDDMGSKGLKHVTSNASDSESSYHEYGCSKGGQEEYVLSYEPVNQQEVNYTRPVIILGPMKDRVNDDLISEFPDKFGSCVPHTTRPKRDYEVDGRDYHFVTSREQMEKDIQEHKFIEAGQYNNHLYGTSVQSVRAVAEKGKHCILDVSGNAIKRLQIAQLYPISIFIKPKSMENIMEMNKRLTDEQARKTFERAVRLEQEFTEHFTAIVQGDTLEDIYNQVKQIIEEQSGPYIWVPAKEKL
UniProt P70605: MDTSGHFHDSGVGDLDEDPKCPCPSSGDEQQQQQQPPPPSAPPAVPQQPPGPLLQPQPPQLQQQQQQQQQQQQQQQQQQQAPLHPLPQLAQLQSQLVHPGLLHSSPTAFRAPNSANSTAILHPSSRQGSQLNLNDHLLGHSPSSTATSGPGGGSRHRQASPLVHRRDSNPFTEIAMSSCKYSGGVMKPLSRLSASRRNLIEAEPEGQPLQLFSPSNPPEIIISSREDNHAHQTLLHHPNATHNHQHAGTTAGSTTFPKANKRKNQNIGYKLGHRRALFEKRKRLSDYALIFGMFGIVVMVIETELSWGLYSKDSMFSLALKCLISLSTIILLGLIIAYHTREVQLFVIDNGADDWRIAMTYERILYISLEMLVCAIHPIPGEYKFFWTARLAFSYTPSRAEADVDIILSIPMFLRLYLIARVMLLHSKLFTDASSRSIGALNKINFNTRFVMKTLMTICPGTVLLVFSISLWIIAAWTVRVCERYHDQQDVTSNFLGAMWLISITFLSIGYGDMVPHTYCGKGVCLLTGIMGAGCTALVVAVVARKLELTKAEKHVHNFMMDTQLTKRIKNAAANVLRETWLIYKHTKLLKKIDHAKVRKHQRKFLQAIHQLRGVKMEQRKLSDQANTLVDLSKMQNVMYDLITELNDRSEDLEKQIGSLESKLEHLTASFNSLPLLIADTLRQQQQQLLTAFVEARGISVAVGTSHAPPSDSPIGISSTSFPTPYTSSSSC

Results are given in words; binding and its absence hold for the method and conditions named. Binding seen in cells or lysates may run through a third protein. A yes stands for co-enrichment or nearness to the bait. Other partners may have been found.

In the experiment the target is T1, MPP2 (membrane palmitoylated protein 2; p55), native, from brain membranes (rat (endogenous in rat brain)) (UniProt D3ZAA9).
T1 sequence: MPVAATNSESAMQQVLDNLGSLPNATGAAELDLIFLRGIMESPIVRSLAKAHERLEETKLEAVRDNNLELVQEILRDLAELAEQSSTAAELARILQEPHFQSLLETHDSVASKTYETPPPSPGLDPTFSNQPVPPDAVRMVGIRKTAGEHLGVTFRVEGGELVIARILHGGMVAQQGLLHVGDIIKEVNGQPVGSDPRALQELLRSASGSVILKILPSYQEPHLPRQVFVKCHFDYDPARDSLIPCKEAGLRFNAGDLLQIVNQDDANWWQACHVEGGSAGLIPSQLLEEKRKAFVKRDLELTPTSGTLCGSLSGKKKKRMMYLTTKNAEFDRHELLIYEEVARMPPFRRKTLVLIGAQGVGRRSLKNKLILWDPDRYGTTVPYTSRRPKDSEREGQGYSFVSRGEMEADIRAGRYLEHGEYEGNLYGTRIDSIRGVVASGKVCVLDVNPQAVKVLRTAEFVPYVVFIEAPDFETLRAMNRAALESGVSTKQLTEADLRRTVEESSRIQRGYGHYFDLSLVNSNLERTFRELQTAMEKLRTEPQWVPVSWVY
In words: affinity purification with mass spectrometry; affinity purifications with anti-MPP2a and anti-MPP2b, pre-immunization IgG as control, on rat brain membrane fractions solubilized with CL-91; whole eluates to high-resolution mass spectrometry.

For the molecule “DLG1 (SAP97), native, from brain membranes (from UniProt Q62696 1-911)”, the binding result is reported as “binds”.
For “SK3, native, from brain membranes (from UniProt P70605 1-732)” the value was “binds”.

B1: Lin7A, native, from brain membranes (protein, UniProt Q9Z250 1-232)
chain: MLKPSVTSAPTADMATLTVVQPLTLDRDVARAIELLEKLQESGEVPVHKLQSLKKVLQSEFCTAIREVYQYMHETITVNGCPEFRARATAKATVAAFAASEGHSHPRVVELPKTDEGLGFNVMGGKEQNSPIYISRIIPGGVAERHGGLKRGDQLLSVNGVSVEGEHHEKAVELLKAAKDSVKLVVRYTPKVLEEMEARFEKLRTARRRQQQQLLIQQQQQQQQQPQQNHMS
For the molecule B1, the binding entry is “binds”.

B2: Lin7C, native, from brain membranes (protein, UniProt Q792I0 1-197)
chain: MAALGEPVRLERDICRAIELLEKLQRSGEVPPQKLQALQRVLQSEFCNAVREVYEHVYETVDISSSPEVRANATAKATVAAFAASEGHSHPRVVELPKTEEGLGFNIMGGKEQNSPIYISRIIPGGIADRHGGLKRGDQLLSVNGVSVEGEHHEKAVELLKAAQGKVKLVVRYTPKVLEEMESRFEKMRSAKRRQQT
As for B2, the binding result is “binds”.
